Data published in the supplement of paper PMC12819154, “High-throughput peptide-centric local stability assay extends protein–ligand identification to membrane proteins, tissues and bacteria” (Nature Structural & Molecular Biology, 2025).
The other results are listed elsewhere or left out. Most values lie at the level of the controls, where differences are scatter.

The chains behind the UniProt entries cited, without tags or fusion partners. Where a name states a change or a piece, a line headed by the entry shows the natural chain unless it says otherwise.
UniProt Q8WTS6: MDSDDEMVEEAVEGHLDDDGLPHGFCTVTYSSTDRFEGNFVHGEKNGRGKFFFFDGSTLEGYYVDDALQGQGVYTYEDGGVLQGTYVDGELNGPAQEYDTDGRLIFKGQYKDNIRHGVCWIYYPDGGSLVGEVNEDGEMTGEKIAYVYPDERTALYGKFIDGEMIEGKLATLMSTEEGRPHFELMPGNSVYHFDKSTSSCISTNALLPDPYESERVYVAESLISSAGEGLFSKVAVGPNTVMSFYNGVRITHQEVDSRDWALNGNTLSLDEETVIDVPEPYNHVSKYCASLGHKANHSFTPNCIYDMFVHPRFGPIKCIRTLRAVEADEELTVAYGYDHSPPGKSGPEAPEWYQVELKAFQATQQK
UniProt Q8WVM0: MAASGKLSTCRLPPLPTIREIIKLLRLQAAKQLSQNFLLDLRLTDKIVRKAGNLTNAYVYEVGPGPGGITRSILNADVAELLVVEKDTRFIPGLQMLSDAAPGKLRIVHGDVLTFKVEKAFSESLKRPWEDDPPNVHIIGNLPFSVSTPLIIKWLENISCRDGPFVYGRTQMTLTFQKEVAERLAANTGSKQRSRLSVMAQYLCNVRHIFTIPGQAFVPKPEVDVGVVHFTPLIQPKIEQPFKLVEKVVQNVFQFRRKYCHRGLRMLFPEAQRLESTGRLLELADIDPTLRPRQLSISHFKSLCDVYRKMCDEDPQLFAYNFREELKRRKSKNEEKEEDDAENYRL
UniProt Q8TCD5: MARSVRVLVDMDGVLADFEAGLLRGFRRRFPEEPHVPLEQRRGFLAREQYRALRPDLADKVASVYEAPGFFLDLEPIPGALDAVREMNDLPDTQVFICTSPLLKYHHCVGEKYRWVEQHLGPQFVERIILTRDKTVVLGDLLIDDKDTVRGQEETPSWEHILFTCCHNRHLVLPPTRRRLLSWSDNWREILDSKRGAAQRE
UniProt Q8WYN0: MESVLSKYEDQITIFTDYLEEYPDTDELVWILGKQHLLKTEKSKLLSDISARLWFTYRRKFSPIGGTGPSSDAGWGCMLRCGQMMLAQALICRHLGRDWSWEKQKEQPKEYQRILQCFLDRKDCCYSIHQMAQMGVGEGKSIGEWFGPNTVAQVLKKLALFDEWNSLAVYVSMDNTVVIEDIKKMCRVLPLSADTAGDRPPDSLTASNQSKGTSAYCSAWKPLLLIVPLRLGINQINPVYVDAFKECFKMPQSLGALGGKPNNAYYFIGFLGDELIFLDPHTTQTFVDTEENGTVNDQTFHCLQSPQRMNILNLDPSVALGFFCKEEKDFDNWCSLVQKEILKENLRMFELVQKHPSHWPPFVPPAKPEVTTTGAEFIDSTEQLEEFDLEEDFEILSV
UniProt Q92546: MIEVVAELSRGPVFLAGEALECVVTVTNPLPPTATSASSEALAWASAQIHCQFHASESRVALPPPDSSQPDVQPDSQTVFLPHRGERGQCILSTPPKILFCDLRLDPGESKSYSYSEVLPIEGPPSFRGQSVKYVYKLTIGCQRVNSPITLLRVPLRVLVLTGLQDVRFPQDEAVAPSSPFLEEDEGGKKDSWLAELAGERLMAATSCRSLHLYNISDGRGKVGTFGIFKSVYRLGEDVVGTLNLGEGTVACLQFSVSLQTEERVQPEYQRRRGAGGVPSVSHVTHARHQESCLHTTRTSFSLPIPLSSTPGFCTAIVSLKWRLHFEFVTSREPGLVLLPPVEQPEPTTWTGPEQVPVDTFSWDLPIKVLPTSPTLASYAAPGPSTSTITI
UniProt Q92508: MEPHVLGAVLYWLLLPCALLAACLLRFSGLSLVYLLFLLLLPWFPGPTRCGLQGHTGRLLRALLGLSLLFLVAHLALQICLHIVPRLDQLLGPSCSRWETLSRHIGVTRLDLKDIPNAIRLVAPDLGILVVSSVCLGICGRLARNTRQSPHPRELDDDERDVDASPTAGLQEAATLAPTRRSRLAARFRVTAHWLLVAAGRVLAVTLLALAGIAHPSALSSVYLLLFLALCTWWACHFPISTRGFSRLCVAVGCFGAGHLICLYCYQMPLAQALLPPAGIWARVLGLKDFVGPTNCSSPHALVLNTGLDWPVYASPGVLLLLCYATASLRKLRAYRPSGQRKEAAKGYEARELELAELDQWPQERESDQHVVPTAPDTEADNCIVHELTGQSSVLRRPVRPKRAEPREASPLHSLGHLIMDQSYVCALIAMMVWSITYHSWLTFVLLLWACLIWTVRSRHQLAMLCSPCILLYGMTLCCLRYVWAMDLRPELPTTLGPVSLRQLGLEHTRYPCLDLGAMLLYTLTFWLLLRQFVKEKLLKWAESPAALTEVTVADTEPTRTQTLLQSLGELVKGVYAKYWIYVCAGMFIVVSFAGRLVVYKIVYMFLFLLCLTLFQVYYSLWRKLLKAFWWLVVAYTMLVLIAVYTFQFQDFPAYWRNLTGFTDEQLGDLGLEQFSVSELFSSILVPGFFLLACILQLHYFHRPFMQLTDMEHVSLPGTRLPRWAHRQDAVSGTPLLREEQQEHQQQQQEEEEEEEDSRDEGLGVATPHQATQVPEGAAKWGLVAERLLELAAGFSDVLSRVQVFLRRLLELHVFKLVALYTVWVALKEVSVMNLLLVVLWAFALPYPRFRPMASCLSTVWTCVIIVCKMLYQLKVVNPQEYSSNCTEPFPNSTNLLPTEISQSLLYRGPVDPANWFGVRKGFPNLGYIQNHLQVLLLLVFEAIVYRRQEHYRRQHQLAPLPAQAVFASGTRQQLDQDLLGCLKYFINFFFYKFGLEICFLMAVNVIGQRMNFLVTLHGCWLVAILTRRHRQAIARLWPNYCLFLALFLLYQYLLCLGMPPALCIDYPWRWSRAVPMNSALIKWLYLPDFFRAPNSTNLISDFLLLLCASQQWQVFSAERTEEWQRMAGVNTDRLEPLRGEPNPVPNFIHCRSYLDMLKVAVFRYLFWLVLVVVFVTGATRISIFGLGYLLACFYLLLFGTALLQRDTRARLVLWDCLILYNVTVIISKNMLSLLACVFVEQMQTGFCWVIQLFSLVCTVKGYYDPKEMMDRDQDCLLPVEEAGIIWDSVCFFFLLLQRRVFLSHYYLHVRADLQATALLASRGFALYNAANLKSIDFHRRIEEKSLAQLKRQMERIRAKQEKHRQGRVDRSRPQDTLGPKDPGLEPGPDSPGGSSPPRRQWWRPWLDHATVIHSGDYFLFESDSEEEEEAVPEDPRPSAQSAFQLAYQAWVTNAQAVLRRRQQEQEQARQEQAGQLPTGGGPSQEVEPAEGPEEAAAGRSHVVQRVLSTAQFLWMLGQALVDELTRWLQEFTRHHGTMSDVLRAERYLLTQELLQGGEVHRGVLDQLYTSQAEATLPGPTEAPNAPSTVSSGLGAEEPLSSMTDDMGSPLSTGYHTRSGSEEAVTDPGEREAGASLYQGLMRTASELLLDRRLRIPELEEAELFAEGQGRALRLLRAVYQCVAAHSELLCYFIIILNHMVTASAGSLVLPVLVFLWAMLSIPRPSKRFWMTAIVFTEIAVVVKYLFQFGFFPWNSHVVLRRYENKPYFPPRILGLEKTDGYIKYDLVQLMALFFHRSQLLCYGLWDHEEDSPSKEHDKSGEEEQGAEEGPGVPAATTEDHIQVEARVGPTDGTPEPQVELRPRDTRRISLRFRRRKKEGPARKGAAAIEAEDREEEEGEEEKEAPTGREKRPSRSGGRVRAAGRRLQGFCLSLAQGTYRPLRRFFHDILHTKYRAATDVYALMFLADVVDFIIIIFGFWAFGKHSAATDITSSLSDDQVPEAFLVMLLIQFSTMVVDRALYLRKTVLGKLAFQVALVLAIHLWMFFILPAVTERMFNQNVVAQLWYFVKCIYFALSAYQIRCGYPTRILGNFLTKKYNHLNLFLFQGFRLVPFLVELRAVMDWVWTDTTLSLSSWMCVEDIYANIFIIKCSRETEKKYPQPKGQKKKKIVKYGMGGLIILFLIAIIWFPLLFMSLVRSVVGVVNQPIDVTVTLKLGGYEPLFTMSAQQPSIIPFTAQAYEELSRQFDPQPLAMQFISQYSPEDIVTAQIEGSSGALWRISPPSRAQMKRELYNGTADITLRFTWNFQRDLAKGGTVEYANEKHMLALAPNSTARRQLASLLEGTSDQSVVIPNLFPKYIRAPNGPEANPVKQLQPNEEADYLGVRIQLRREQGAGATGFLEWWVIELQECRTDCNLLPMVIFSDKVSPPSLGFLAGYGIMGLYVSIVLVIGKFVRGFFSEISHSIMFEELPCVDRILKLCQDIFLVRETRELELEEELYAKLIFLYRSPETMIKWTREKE
UniProt Q8TDG4: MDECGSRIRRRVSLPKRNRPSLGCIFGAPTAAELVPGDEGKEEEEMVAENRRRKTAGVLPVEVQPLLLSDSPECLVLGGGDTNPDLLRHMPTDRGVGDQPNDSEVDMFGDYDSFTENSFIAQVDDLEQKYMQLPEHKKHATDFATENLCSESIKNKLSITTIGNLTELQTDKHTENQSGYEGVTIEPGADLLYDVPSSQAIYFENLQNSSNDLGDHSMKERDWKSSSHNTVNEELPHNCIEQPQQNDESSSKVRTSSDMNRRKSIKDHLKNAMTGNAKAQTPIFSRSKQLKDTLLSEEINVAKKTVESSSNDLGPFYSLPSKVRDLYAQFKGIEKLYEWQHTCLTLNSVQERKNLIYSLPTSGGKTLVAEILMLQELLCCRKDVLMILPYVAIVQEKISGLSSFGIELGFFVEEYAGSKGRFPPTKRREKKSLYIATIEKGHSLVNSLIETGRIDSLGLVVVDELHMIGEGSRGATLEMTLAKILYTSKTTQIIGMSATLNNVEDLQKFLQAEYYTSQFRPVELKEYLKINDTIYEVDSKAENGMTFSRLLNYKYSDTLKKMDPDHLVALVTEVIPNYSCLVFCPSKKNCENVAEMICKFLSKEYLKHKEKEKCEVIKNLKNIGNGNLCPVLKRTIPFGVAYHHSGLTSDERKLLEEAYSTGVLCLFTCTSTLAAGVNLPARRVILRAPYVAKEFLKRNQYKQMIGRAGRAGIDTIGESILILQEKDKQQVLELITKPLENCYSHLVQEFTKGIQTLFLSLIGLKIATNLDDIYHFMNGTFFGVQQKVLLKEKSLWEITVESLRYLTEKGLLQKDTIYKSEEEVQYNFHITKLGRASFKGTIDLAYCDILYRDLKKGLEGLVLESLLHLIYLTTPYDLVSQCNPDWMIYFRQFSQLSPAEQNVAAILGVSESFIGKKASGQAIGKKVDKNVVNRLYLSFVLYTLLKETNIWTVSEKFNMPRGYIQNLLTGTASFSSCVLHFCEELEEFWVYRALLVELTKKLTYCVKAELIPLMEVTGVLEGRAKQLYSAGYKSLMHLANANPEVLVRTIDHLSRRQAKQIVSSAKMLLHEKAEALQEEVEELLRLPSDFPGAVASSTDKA
UniProt Q92674: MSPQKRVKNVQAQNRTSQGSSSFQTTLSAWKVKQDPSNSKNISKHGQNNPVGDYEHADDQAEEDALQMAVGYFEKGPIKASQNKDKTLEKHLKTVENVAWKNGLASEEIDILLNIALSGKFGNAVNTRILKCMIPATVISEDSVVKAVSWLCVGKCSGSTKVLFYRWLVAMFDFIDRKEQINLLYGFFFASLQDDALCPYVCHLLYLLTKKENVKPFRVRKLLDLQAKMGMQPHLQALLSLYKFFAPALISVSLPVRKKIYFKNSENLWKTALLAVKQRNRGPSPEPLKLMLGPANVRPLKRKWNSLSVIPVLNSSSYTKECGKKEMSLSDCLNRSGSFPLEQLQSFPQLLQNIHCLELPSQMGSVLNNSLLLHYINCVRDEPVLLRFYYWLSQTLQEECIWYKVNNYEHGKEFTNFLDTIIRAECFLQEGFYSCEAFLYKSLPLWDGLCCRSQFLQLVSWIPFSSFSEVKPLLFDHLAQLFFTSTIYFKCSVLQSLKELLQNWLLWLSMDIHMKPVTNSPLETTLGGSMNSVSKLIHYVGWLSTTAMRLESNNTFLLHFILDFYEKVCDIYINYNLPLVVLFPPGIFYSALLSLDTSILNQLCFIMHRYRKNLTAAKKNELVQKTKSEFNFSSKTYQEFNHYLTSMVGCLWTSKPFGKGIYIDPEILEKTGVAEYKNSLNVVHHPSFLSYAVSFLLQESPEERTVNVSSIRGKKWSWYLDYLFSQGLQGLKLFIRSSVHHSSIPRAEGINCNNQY
UniProt Q8WVX9: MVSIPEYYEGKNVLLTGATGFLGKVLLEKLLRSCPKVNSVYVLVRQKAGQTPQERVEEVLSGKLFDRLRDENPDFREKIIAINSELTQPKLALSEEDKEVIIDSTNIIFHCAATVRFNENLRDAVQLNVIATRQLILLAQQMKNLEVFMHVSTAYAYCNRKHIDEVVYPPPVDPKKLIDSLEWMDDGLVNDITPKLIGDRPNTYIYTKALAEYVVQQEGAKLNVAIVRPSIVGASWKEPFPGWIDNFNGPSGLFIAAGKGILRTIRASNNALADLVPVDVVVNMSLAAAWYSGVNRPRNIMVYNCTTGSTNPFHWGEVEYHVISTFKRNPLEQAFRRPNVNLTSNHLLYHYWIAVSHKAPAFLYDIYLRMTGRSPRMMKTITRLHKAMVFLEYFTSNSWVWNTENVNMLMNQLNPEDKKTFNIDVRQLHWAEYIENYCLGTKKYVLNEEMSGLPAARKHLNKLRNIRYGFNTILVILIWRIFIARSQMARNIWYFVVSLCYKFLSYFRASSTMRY

compound: CN[C@@H]1C[C@H]2O[C@@](C)([C@@H]1OC)n1c3ccccc3c3c4c(c5c6ccccc6n2c5c31)C(=O)NC4 [staurosporine]; test: log2 fold change of tryptic peptide abundance, ligand vs vehicle (limited proteolysis) (log2 ratio); higher = more trypsin-susceptible (destabilized); details: ligand concentration: 20 uM; sample: K562 cleared lysate; digestion: 4 min, 22 C (HT-PELSA RT4min, Orbitrap Astral)

| Target | log2 fold change |
| --- | --- |
| SETD7 (peptide sequence: AFQATQQK, peptide start residue: 359) (UniProt Q8WTS6) | -0.00457 |
| UniProt Q8WV37 (peptide sequence: NSHLAEHCR, peptide start residue: 243) | 0.575 |
| CEP192 (peptide sequence: IVVLDAGKHFEDK, peptide start residue: 174) (UniProt Q8TEP8) | -0.285 |
| NSMCE1 (peptide sequence: MATDFAENELDLFRK, peptide start residue: 97) (UniProt Q8WV22) | -0.576 |
| TFB1M (peptide sequence: QLSISHFK, peptide start residue: 294) (UniProt Q8WVM0) | 0.497 |
| PCNP (peptide sequence: AGAAGGPEEEAEKPVK, peptide start residue: 17) (UniProt Q8WW12) | -0.124 |
| PARD3B (peptide sequence: VGELTQQALQR, peptide start residue: 23) (UniProt Q8TEW8) | 0.199 |
| NT5C (peptide sequence: RRFPEEPHVPLEQR, peptide start residue: 28) (UniProt Q8TCD5) | 0.212 |
| DPF1 (peptide sequence: EAIEHCR, peptide start residue: 18) (UniProt Q92782) | -0.635 |
| ATG4A (peptide sequence: ILQCFLDRK, peptide start residue: 114) (UniProt Q8WYN0) | 0.177 |
| SYMPK (peptide sequence: LIHELAAVYTEAIADIKR, peptide start residue: 804) (UniProt Q92797) | 0.275 |
| UniProt Q8WVK7 (peptide sequence: QTDLELSPLTK, peptide start residue: 95) | -0.596 |
| UniProt Q8TF61 (peptide sequence: EKEELEER, peptide start residue: 261) | 0.192 |
| RGP1 (peptide sequence: VNSPITLLRVPLR, peptide start residue: 145) (UniProt Q92546) | -0.296 |
| PIEZO1 (peptide sequence: VGPTDGTPEPQVELRPR, peptide start residue: 1848) (UniProt Q92508) | 0.177 |
| THAP4 (peptide sequence: GAAGWSPSSSGNPMAKPESR, peptide start residue: 123) (UniProt Q8WY91) | 0.33 |
| UniProt Q8TDG4 (peptide sequence: AQTPIFSR, peptide start residue: 279) | -0.134 |
| DPF3 (peptide sequence: KSGRPEELVSCADCGR, peptide start residue: 274) (UniProt Q92784) | 0.386 |
| MRPS31 (peptide sequence: HFMELVTCGLSK, peptide start residue: 349) (UniProt Q92665) | -0.394 |
| GPT2 (peptide sequence: AGEIELELQR, peptide start residue: 72) (UniProt Q8TD30) | 0.168 |
| COG1 (peptide sequence: YRDLIEAADTIGQMR, peptide start residue: 56) (UniProt Q8WTW3) | -0.222 |
| DTD1 (peptide sequence: SASSGAEGDVSSER, peptide start residue: 194) (UniProt Q8TEA8) | 0.304 |
| UniProt Q8TDB4 (peptide sequence: DASLRRMSSNR, peptide start residue: 27) | 0.208 |
| CHPT1 (peptide sequence: ALSEPLSAAQLR, peptide start residue: 16) (UniProt Q8WUD6) | 0.463 |
| UniProt Q92674 (peptide sequence: FFAPALISVSLPVRK, peptide start residue: 244) | -0.458 |
| FAR1 (peptide sequence: LIGDRPNTYIYTK, peptide start residue: 196) (UniProt Q8WVX9) | -0.179 |
| UniProt Q8WVT3 (peptide sequence: SPSFGGASEASAR, peptide start residue: 182) | 0.177 |
| RB1CC1 (peptide sequence: SLLEQETENLR, peptide start residue: 1091) (UniProt Q8TDY2) | 0.808 |
| ZC3H15 (peptide sequence: DEELEKDTMDNWDEK, peptide start residue: 142) (UniProt Q8WU90) | -0.176 |

Exported as tab-separated lines: part of the list above
Target	log2 fold change
UniProt Q8WV37 (peptide sequence: NSHLAEHCR, peptide start residue: 243)	0.575
NSMCE1 (peptide sequence: MATDFAENELDLFRK, peptide start residue: 97) (UniProt Q8WV22)	-0.576
PARD3B (peptide sequence: VGELTQQALQR, peptide start residue: 23) (UniProt Q8TEW8)	0.199
ATG4A (peptide sequence: ILQCFLDRK, peptide start residue: 114) (UniProt Q8WYN0)	0.177
UniProt Q8TDB4 (peptide sequence: DASLRRMSSNR, peptide start residue: 27)	0.208
UniProt Q8WVT3 (peptide sequence: SPSFGGASEASAR, peptide start residue: 182)	0.177
